PubChem BioAssay AID1259258, Sanger Institute | 2017
Shown is an unselected part of 160 reagents tested. Over the whole deposit, 40 (25%) got an active call. 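Each row is one of four siRNAs per gene; a gene counts as confirmed only when several of its siRNAs show synergy.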 The numbers tell different reagents against one gene apart. Viability is capped at 1. Not all columns of the deposit are shown. Not stated in the record: the amount of reagent, the time to read-out.

Assay: 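Kinase knock-downs making colon cancer cells more sensitive to BYL719, cetuximab or trametinib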 (follow-up of hits)
Cells: human SW48 colorectal cancer cells
Knock-down reagent: single siRNA against human genes
Challenge: anchor drug cetuximab 5 µg/ml, trametinib 10 nM or BYL719 1 µM, or DMSO vehicle alone; assay length not stated
Measurement: 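Synergy score per drug compares siRNA-plus-drug effect with each agent alone; viability, relative to non-targeting pool 2 and replicate-averaged, uses DMSO, cetuximab 5 µg/ml, trametinib 10 nM or BYL719 1 µM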
Direction: synergy score with trametinib and synergy score with BYL719 and synergy score with cetuximab: higher = stronger synergy, more killing than expected; viability with siRNA and DMSO only: higher = more viable cells
Active means: 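Any one of the three anchor drugs giving a synergy value over 0.10 makes the siRNA a hit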

target,reagent no.,synergy score with trametinib,synergy score with BYL719,synergy score with cetuximab,viability with siRNA and DMSO only (fraction of control),outcome
SF3B1,1,-0.0515,-0.063,-0.0138,0.424,inactive
SF3B1,2,-0.00341,-0.0603,-0.0747,0.398,inactive
SF3B1,3,0.0759,-0.0739,-0.062,0.635,inactive
SF3B1,4,0.0604,-0.0659,-0.0115,0.49,inactive
IRAK3,1,0.0183,-0.0226,-0.0383,0.42,inactive
IRAK3,2,-0.123,-0.114,-0.228,1,inactive
IRAK3,3,-0.0953,-0.0607,-0.238,0.775,inactive
IRAK3,4,-0.053,-0.153,-0.171,1,inactive
PAK1,1,0.0738,-0.0613,-0.0748,0.742,inactive
PAK1,2,-0.0985,-0.0766,0.00903,0.604,inactive
PAK1,3,0.0893,0.0566,-0.119,0.805,inactive
PAK1,4,0.223,0.0516,-0.00205,1,active
GTF2H1,1,-0.164,-0.0602,-0.0374,0.83,inactive
GTF2H1,2,-0.228,-0.111,-0.0453,0.923,inactive
GTF2H1,3,-0.351,-0.264,-0.198,1,inactive
GTF2H1,4,-0.0309,-0.134,-0.274,1,inactive
CAMK2N1,1,0.0302,-0.171,-0.173,0.772,inactive
CAMK2N1,2,-0.173,0.37,-0.222,0.998,active
CAMK2N1,3,-0.225,-0.132,-0.0876,1,inactive
CAMK2N1,4,-0.118,-0.254,-0.265,0.574,inactive
KCNH8,1,0.0059,-0.065,-0.0964,0.809,inactive
KCNH8,2,0.079,0.0742,0.0769,0.586,inactive
KCNH8,3,0.142,-0.014,-0.0816,0.907,active
KCNH8,4,0.032,-0.0251,0.0318,0.623,inactive
SYK,1,-0.0176,-0.02,-0.0421,0.715,inactive
SYK,2,0.117,-0.0649,0.00689,1,active
SYK,3,0.176,0.0725,0.0275,0.575,active
SYK,4,-0.104,-0.231,-0.274,1,inactive
AK2,1,0.11,-0.0511,0.166,1,active
AK2,2,0.0443,0.00619,-0.0694,0.887,inactive
AK2,3,-0.0893,-0.167,-0.274,1,inactive
AK2,4,0.0886,0.0432,-0.0386,1,inactive
MAPKAPK2,1,-0.0648,-0.014,-0.0132,0.83,inactive
MAPKAPK2,2,-0.215,-0.154,-0.125,0.91,inactive
MAPKAPK2,3,-0.279,-0.00158,-0.0791,0.975,inactive
MAPKAPK2,4,-0.14,-0.00606,-0.0875,1,inactive
IKBKB,1,0.142,-0.164,-0.0455,1,active
IKBKB,2,-0.0544,-0.112,-0.0362,1,inactive
IKBKB,3,-0.00418,-0.13,0.0429,1,inactive
IKBKB,4,-0.0623,-0.0925,-0.137,0.759,inactive
PIM1,1,0.13,0.143,0.18,0.952,active
PIM1,2,-0.0198,-0.00997,-0.105,0.955,inactive
PIM1,3,-0.0871,-0.0683,-0.0117,0.803,inactive
PIM1,4,-0.139,-0.0954,-0.0504,0.866,inactive
BMPR2,1,-0.225,-0.095,-0.273,1,inactive
BMPR2,2,-0.00215,-0.0711,-0.0439,0.838,inactive
BMPR2,3,-0.202,-0.206,-0.274,1,inactive
BMPR2,4,-0.364,-0.207,-0.239,1,inactive
CDKN2D,1,0.212,-0.0304,0.0789,0.833,active
CDKN2D,2,0.173,0.0694,0.015,0.977,active
CDKN2D,3,-0.0898,-0.151,-0.0325,0.86,inactive
CDKN2D,4,0.0779,0.0116,-0.0482,0.93,inactive

Reprinted from the listing (7 entries):
target,reagent no.,synergy score with trametinib,synergy score with BYL719,synergy score with cetuximab,viability with siRNA and DMSO only (fraction of control),outcome
AK2,1,0.11,-0.0511,0.166,1,active
AK2,2,0.0443,0.00619,-0.0694,0.887,inactive
AK2,3,-0.0893,-0.167,-0.274,1,inactive
AK2,4,0.0886,0.0432,-0.0386,1,inactive
MAPKAPK2,1,-0.0648,-0.014,-0.0132,0.83,inactive
MAPKAPK2,2,-0.215,-0.154,-0.125,0.91,inactive
MAPKAPK2,3,-0.279,-0.00158,-0.0791,0.975,inactive
